Results are given in words; binding and its absence hold for the method and conditions named. Binding seen in cells or lysates may run through a third protein. Some binding calls cover weakened binding; strength is not graded here. For some assays here: Where a sequence is shown, tags or fusion partners need not be part of it.
Experiments:
Assay in all cases: co-IP; lysates of HeLa cells expressing FHS-tagged TNRC6A-SD fragments (collected 24 h after transfection) or full-length TNRC6A (36 h), anti-FLAG antibody beads 2 h at 4 °C, lysis buffer with 140 mM NaCl, wash buffer with 300 mM NaCl and 0.5% NP40; endogenous CNOT1, CNOT9 and PABP detected by Western …
[1] = target: FLAG-HA-SBP (FHS)-tagged full-length TNRC6A, wild type (human) (UniProt Q8NDV7)
[2] = target: FHS-FL-TNRC6A-S1616A/S1691A (human) (UniProt Q8NDV7)
[3] = target: FHS-FL-TNRC6A-S1616D/S1691D (human) (UniProt Q8NDV7)
[4] = target: T1, FLAG-HA-SBP (FHS)-tagged TNRC6A-SD-WT (human) (UniProt Q8NDV7)
T1 sequence: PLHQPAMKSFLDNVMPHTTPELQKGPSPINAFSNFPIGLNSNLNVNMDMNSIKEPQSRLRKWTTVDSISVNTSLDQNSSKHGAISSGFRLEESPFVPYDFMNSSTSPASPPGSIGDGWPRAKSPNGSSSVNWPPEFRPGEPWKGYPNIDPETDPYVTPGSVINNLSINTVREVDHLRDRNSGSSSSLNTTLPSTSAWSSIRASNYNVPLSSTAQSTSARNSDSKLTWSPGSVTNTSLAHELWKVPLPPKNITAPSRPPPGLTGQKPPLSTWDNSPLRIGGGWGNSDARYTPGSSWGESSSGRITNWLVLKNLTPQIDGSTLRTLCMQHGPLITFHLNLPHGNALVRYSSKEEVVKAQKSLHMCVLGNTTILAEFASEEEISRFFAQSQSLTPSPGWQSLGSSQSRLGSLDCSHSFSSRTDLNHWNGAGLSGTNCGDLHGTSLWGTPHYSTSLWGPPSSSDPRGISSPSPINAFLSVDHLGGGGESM

Chains of the proteins cited; added tags and fusions are not shown.
UniProt A5YKK6: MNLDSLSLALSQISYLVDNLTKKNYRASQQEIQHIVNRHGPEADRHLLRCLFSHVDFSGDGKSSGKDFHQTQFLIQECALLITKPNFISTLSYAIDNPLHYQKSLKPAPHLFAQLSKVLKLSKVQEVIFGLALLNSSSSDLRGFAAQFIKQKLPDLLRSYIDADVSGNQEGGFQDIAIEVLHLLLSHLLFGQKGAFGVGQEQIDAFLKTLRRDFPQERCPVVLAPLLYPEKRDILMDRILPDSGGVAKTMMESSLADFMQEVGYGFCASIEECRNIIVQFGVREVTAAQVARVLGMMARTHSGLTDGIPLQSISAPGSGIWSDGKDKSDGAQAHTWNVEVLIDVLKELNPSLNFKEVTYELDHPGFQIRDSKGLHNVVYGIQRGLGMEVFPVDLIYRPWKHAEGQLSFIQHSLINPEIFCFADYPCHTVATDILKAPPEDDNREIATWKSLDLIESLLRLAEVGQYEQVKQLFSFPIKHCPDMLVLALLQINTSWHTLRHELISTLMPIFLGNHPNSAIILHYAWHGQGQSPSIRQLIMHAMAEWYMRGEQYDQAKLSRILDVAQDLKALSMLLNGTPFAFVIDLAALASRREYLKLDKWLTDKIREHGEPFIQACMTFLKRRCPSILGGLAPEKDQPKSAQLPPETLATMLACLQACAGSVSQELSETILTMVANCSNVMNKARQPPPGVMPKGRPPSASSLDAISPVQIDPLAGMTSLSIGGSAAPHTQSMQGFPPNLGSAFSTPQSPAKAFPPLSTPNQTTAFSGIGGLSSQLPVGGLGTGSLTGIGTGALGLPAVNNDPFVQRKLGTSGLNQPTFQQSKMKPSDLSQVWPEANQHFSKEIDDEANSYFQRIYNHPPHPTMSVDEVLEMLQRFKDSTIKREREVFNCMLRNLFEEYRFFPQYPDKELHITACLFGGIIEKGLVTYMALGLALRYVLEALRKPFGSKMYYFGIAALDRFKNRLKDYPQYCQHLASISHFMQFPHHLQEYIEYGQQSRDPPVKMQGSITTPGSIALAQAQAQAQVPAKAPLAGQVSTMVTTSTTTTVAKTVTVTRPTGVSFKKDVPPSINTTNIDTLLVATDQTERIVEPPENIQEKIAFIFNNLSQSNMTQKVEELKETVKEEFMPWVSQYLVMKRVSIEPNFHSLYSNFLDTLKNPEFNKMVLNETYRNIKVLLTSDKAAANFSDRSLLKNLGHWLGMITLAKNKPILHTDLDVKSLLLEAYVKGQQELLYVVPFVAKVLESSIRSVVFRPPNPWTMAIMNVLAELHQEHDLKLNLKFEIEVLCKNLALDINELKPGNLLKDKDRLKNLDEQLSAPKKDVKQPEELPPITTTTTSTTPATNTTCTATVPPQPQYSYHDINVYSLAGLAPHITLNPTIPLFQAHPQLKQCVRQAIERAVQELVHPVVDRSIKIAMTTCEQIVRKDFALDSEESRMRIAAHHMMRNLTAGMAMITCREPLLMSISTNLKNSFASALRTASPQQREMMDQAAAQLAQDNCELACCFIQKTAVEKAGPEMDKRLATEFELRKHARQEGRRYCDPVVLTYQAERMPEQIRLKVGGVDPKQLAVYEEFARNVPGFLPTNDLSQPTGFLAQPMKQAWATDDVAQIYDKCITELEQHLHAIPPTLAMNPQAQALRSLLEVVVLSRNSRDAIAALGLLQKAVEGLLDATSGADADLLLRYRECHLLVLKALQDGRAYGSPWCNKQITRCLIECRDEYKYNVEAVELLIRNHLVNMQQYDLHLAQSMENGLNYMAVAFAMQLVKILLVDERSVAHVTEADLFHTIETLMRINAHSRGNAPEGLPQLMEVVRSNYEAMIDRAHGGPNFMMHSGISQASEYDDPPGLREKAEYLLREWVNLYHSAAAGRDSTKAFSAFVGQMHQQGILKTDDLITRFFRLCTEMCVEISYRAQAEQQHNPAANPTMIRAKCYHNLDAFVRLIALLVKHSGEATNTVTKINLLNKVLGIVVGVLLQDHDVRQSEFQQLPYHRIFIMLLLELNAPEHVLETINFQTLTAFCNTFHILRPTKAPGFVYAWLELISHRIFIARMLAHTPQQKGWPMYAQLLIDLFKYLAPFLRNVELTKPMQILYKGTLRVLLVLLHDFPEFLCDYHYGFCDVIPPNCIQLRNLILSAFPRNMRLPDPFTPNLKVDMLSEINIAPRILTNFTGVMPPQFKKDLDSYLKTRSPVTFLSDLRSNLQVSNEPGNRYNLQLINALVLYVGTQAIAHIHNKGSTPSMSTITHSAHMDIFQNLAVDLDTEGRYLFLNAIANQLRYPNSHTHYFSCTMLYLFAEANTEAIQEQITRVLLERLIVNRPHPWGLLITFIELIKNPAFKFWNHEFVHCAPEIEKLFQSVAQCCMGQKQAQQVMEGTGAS
UniProt Q92600: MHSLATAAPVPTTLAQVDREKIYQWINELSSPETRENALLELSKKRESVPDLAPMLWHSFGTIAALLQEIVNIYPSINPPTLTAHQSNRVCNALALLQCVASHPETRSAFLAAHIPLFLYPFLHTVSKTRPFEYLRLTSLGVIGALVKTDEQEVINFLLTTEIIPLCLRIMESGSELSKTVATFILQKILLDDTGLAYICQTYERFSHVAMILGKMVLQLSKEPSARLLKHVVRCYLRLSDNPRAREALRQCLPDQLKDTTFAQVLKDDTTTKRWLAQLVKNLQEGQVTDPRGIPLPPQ

Measured: binding

CNOT1 (from UniProt A5YKK6 1-2376)
binds: [1] | [2] | [3] | [4]

CNOT9 (from UniProt Q92600 1-299)
binds: [1] | [2] | [3] | [4]

Reference: publication PMC7917804
